Data published in US20240400542A1 (University of Virginia Patent Foundation, priority 2021, published 2024).

System: Jurkat cells
Assay: Live cell chemical proteomics, LC-MS/MS identification of KY-26-modified sites
Format: cell-based, human
Details: live cell treatment 12.5 μM, 2 hr

## C#CCNC(=O)c1cc(Nc2cc(C3CC3)[nH]n2)nc(N2CCN(C(=O)c3ccc(S(=O)(=O)n4cnc(-c5ccccc5)n4)cc3)CC2)n1 [KY-26, 6-((5-cyclopropyl-1H-pyrazol-3-yl)amino)-2-(4-(4-((3-phenyl-1H-1,2,4-triazol-1-yl)sulfonyl)benzoyl)piperazin-1-yl)-N-(prop-2-yn-1-yl)pyrimidine-4-carboxamide]
HCD and ETD, trypsin and chymotrypsin
  number of probe-modified peptides with assigned KY-26 modification: > 65
Tryptic digests
  target site assignments of probe-modified peptides, HCD alone: 35
  target site assignments of probe-modified peptides, HCD/ETD: 51
